Measurements: patent publication US20110059977A1 (priority 2006, published 2011)
Values after ≈ are worked out from the molar mass of the structure shown.

Tested on: M. tuberculosis H37Rv
Assay: In vitro tests on Mycobacterium tuberculosis (MIC in 7H11 agar medium)
Settings: 21-30 days at 37° C.

## CO[C@H]1/C=C/O[C@@]2(C)Oc3c(C)c(O)c4c(O)c(c(/C=N/N5CCN(C)CC5)c(O)c4c3C2=O)NC(=O)/C(C)=C\C=C\[C@H](C)[C@H](O)[C@@H](C)[C@@H](O)[C@@H](C)[C@H](OC(C)=O)[C@@H]1C [rifampicin]
  MIC on Mycobacterium tuberculosis: 0.1 µg/mL (≈ 0.122 µM)
